{"source": "paper PMC12396409", "about": "“Screening and hit evaluation of a microbial metabolite library against the pathogenic Plasmodium falciparum and Toxoplasma gondii parasites” (International Journal for Parasitology: Drugs and Drug …, 2025)", "key": {"[1]": {"test_system": "P. falciparum 3D7 parasites", "experiment": "P. falciparum growth inhibition assay, 1-cycle (72 h treatment), SYBR DNA staining (library screen at 2 μg/mL and dose-response)", "assay_type": "cell-based, Plasmodium falciparum"}, "[2]": {"test_system": "P. falciparum 3D7 parasites", "experiment": "P. falciparum growth inhibition assay, 2-cycle (120 h treatment), delayed-death screen and dose-response", "assay_type": "cell-based, Plasmodium falciparum"}, "[3]": {"test_system": "T. gondii RH strain (RH-Tub-eYFP) tachyzoites", "assay_type": "cell-based, Toxoplasma gondii"}}}
{"smiles": "C/C=C/C[C@@H](C)[C@@H](O)[C@H]1C(=O)N[C@@H](C)C(=O)N(C)CC(=O)N(C)[C@@H](CC(C)C)C(=O)N[C@@H](C(C)C)C(=O)N(C)[C@@H](CC(C)C)C(=O)N[C@@H](C)C(=O)N[C@H](C)C(=O)N(C)[C@@H](CC(C)C)C(=O)N(C)[C@@H](CC(C)C)C(=O)N(C)[C@@H](C(C)C)C(=O)N1C", "note": "[Cyclosporin B]", "values": [{"measurement": "Pf_72h_%Growth_Rep1", "setting": "[1]", "value": 2.11, "unit": "%"}, {"measurement": "Pf_72h_%Growth_Rep2", "setting": "[1]", "value": -1.27, "unit": "%"}, {"measurement": "Pf_120h_%Growth_Rep1", "setting": "[2]", "value": 9.68, "unit": "%"}, {"measurement": "Pf_120h_%Growth_Rep2", "setting": "[2]", "value": 10.86, "unit": "%"}, {"measurement": "Tg_72h_%Growth_Rep1", "setting": "[3]", "value": 78.12, "unit": "%"}, {"measurement": "Tg_72h_%Growth_Rep2", "setting": "[3]", "value": 84.02, "unit": "%"}]}
